Measurements taken from PubChem BioAssay AID2685 (National Center for Advancing Translational Sciences (NCATS), 2010).
This is one part of the list. Further columns of the screen follow, without active or inactive calls. The list favours compounds with an active or inconclusive main result. Potencies come from curve fits of mixed quality, noted in brackets.

Assay: qHTS Assay for Lipid Storage Modulators in Drosophila S3 Cells;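 on cell number change: cells counted by Cell Tracker Red CMTPX staining in the red channel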
Conditions: BODIPY lipid droplet fluorescence, 18-24 h; for cell number change: measured here: cell count max response, cells fed with added oleic acid
Outline: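 Drosophila S3 cells got compounds at several concentrations plus oleic acid (400 uM solution). Laser-scanning cytometry with 488 nm excitation read lipid droplets at 500-530 nm and cells at 575-640 nm. Percent activity was relative to 20 uM Triacsin C.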

[1] = measured here: cell number channel AC50, cells fed with added oleic acid
[2] = measured here: lipid fluorescence (Fed channel) AC50, cells fed with added oleic acid

| Compound | cell number change | AC50 [1] | AC50 [2] |
| --- | --- | --- | --- |
| CCOC(=O)C1CCCCN1S(=O)(=O)c1ccc2c(c1)CC(C)N2C(=O)C1CCC1 (stereo unspecified) | 23.7% | – | – |
| COc1ccc(OC)c(/C=C/C(=O)Nc2ccc(OC)nc2)c1 | 56.2% | 29.1 µM [rising, single point] | 6.51 µM [rising, single point] |
| CC1=[N+](C)N(c2ccccc2)C(=O)C1N=Cc1ccc(Cl)cc1 (stereo unspecified) | -41.5% | 1.84 µM [falling, partial curve, poor fit] | – |
| Cc1cccc(Cc2c(C)nc3c(C(=O)NCc4ccco4)cnn3c2C)c1 | -11.1% | – | 14.6 µM [falling, partial curve] |
| Cc1ccc(NC(C)c2cc(Cl)ccc2O)cc1 (stereo unspecified) | – | 5.8 µM [rising, single point] | – |
| O=C1c2ccccc2C(=O)C12OC2c1cccc2ccccc12 (stereo unspecified) | -19.8% | – | 29.1 µM [falling, single point] |
| COc1cc(NS(=O)(=O)c2ccc(F)cc2)c(OC)cc1NC(=O)C1CC1 | 6.42% | – | 2.31 µM [rising, full curve] |
| Cc1cc(C(=O)O)ccc1NCc1cccnc1 | 1.93% | – | 0.58 µM [rising, single point] |
| COc1ccc(C(=O)NCCN2CCOCC2)cc1[N+](=O)[O-] | 47.3% | 23.1 µM [rising, single point] | 20.6 µM [rising, partial curve] |
| CC(C)N(Cc1ccccc1)C(=O)COC(=O)c1ccc2ncsc2c1 | -7.43% | – | 20.6 µM [rising, single point] |
| CCc1cc(C(=O)N(C)CC(=O)N(CC(C)C)c2c(N)n(CC(C)C)c(=O)[nH]c2=O)sc1C | -14.4% | – | 6.51 µM [falling, single point] |
| O=c1c2ccccc2nc(COc2ccccc2)n1/N=C/c1c[nH]c2ccccc12 | -30.8% | 11.6 µM [falling, partial curve, poor fit] | 18.4 µM [falling, partial curve] |
| CCC(C(=O)OCC(=O)Nc1ccc(C)c(S(=O)(=O)N2CCOCC2)c1)c1ccccc1 (stereo unspecified) | -33.6% | 16.4 µM [falling, partial curve, poor fit] | – |
| Cc1ccc(NC(=O)COC(=O)c2cccc3c2C(=O)c2ccccc2C3=O)c(C)c1 | -10.7% | – | – |
| CCCc1cc(NCCN(C)C)n2c(nc3ccccc32)c1C#N | 20.2% | – | – |
| Cc1ccc(S(=O)(=O)N2CCN(Cc3cc(=O)n4ccccc4n3)CC2)cc1C | -8.04% | – | – |
| CC(C)(C)NC(=O)NC(=O)CSc1nncs1 | – | 0.00517 µM [falling, full curve, poor fit] | – |
| O=C(c1sccc1-c1ccccc1)N1CCN(S(=O)(=O)c2ccccc2F)CC1 | 12.1% | – | 7.31 µM [falling, partial curve] |
| Cc1cc(Nc2ccc(O)cc2)n2c(nc3ccccc32)c1C#N | -43.8% | 4.11 µM [falling, full curve] | 5.8 µM [falling, partial curve] |
| COc1ccc([C@H]2CC(=O)C=C(c3cc(OC)ccc3OC)C2)cc1 | 9.27% | 6.51 µM [falling, single point] | – |

| Compound | cell number change | AC50 [1] | AC50 [2] |
| --- | --- | --- | --- |
| O=C(Oc1ccc(Br)cc1C(=S)N1CCCC1)c1ccccc1F | -4.62% | – | 18.4 µM [rising, single point] |
| CCn1c(CCCCc2n[nH]c(=S)n2CC)n[nH]c1=S | 60.2% | 11.6 µM [rising, partial curve] | – |
| CC1CC(C)CN(c2nc3c(c(=O)n(C)c(=O)n3C)n2C)C1 (stereo unspecified) | -3.31% | – | 0.651 µM [falling, single point] |
| CCC(C)NCCOCCOc1ccc(C)cc1OC (stereo unspecified) | -31% | 0.82 µM [falling, full curve, poor fit] | – |
| O=C(CCCC1=NS(=O)(=O)c2ccccc2N1)N1CCN(c2ccc([N+](=O)[O-])cc2)CC1 | 124% | 20.6 µM [rising, partial curve] | 25.9 µM [rising, single point] |
| Cc1cc(NC(=O)CN2C(=O)NC(C)(c3ccc(Cl)cc3)C2=O)no1 (stereo unspecified) | -31% | 29.1 µM [falling, single point] | 16.4 µM [falling, partial curve, poor fit] |
| COC(=O)[C@@]1(Cc2ccc(F)cc2)[C@H]2c3cc(C(=O)N(C)C)n(Cc4ccc(OC)c(OC)c4)c3C[C@H]2CN1C(=O)c1ccccc1 | -54.1% | 20.6 µM [falling, single point] | 16.4 µM [falling, partial curve] |
| Cc1cccc(OCCCC(=O)NC(C)c2ccccc2)c1 (stereo unspecified) | 86.4% | 8.2 µM [rising, partial curve] | 4.11 µM [rising, single point] |
| COc1ccc(CNC(=O)C2CCN(C(=O)[C@@H](CC(C)C)NC(=O)OC(C)(C)C)CC2)cc1 | -16.5% | – | 23.1 µM [rising, partial curve] |
| Cc1ccc(NC(=O)C2(NC(=O)c3ccccn3)CCCCC2)cc1Br | -47.4% | 0.13 µM [falling, full curve, poor fit] | – |
| CCN(CC)c1nc2ccccc2nc1C(C#N)C(=O)NCCCOC (stereo unspecified) | 18.3% | – | 3.26 µM [rising, full curve] |
| O=C1CC(NCc2ccc3c(c2)OCO3)C(=O)N1Cc1ccc2c(c1)OCO2 (stereo unspecified) | -14.9% | – | 32.6 µM [rising, single point] |
| Cc1nc2c(C(=O)NCc3ccco3)cnn2c(C)c1Cc1ccc(F)cc1Cl | 25% | – | – |
| CCOC(=O)c1c(C)[nH]c(=S)c(C#N)c1-c1ccc(Cl)cc1 | 19.5% | – | 2.59 µM [rising, full curve] |
| Cc1onc(-c2ccccc2Cl)c1C(=O)Nc1nc2ccc(S(C)(=O)=O)cc2s1 | 7.61% | – | 0.651 µM [rising, single point] |
| COc1cc(C(=O)Sc2ccc(C)cc2)cc(OC)c1OC | 27.9% | – | 14.6 µM [rising, partial curve] |
| COc1cc(OC)c(S(=O)(=O)N2CCN(C(=O)c3ccco3)CC2)cc1NC(C)=O | -51.2% | 10.3 µM [falling, partial curve, poor fit] | – |
| CC(=O)c1ccc(N2CCN(C(=O)/C=C/c3ccc(S(=O)(=O)N4CCOCC4)cc3)CC2)cc1 | -9.85% | – | – |
| CC(C)(C)NC(=O)c1ccc(NC(=O)CSc2ccccc2)cc1 | 33.8% | 0.0184 µM [rising, full curve] | 0.651 µM [rising, full curve, poor fit] |
| Cc1nn(CCOc2ccccc2Cl)c(C)c1[N+](=O)[O-] | 22.1% | – | – |

| Compound | cell number change | AC50 [1] | AC50 [2] |
| --- | --- | --- | --- |
| CCC[N+](CC#Cc1ccccc1)(CCC)CC(=O)OCC | 78.7% | 25.9 µM [rising, single point] | 6.51 µM [rising, partial curve] |
| CC1CCN(C(c2cc3cc4c(cc3[nH]c2=O)OCO4)c2nnnn2CC2CCCO2)CC1 (stereo unspecified) | -11.2% | – | – |
| O=C(c1ccc(COc2ccccc2Br)o1)N1CCCCCC1 | -2.73% | – | – |
| C=CCN1C(=O)/C(=C2/Sc3ccc(OC)cc3N2CC)SC1=S | -15.7% | – | 6.51 µM [falling, full curve, poor fit] |
| COc1cccc(NC(=O)CSc2nc(C3CC3)nc3ccccc23)c1 | 138% | 16.4 µM [rising, single point] | – |
| O=C(Nc1ccc2c(c1)nc1n2CCOC1)c1ccccc1 | 9.42% | – | 0.00461 µM [falling, full curve, poor fit] |
| CCOC(=O)N1CCN(C(=O)Nc2ccc(NC(=O)N3CCN(C(=O)OCC)CC3)cc2)CC1 | -9.77% | – | 29.1 µM [falling, single point] |
| CCc1cccc(C)c1NC(=O)CSc1nnc(Cc2csc(C)n2)o1 | 144% | 29.1 µM [rising, single point] | – |
| CC(=O)c1cccc(NS(=O)(=O)c2c(C)n[nH]c2C)c1 | – | 0.013 µM [falling, full curve, poor fit] | 0.231 µM [falling, partial curve, poor fit] |
| CN1CCCC1=Nc1c2c(nc3ccccc13)N(C)CC2 | -17.2% | – | 0.731 µM [falling, full curve] |
| COc1ccc(OC)c(-c2cc(C(=O)NCCCn3ccnc3)no2)c1 | -0.1% | 0.146 µM [rising, full curve, poor fit] | 0.411 µM [rising, full curve] |
| Cc1c(C)c2ccc(OCC(=O)NC(Cc3c[nH]c4ccc(O)cc34)C(=O)O)c(C)c2oc1=O (stereo unspecified) | 11.5% | – | 6.51 µM [rising, single point] |
| O=C(CSc1nc2ncccc2[nH]1)c1cccc([N+](=O)[O-])c1 | -33.9% | 20.6 µM [falling, partial curve, poor fit] | 18.4 µM [falling, partial curve] |
| CC(C)CNS(=O)(=O)c1ccc(OCC(=O)Nc2ccc(F)cc2F)cc1 | 63.3% | 14.6 µM [rising, partial curve] | – |
| CC(=O)NS(=O)(=O)c1cccnc1Nc1ccc(Cl)cc1 | -14.9% | – | – |
| O=C(Nc1ccccc1)c1ccc(F)c(S(=O)(=O)N2CCOCC2)c1 | 0.408% | – | – |
| COc1cccc(CN(C(=O)c2ccc([N+](=O)[O-])cc2)C2CCS(=O)(=O)C2)c1 (stereo unspecified) | -39.4% | 29.1 µM [falling, single point] | 6.51 µM [rising, single point] |
| CCOC(=O)CC(NC(=O)c1ccco1)c1ccc(C)cc1 (stereo unspecified) | 27.3% | – | 0.092 µM [falling, full curve, poor fit] |

Three entries from above, as tab-separated lines:
Compound	cell number change	AC50 [1]	AC50 [2]
CC1CCN(C(c2cc3cc4c(cc3[nH]c2=O)OCO4)c2nnnn2CC2CCCO2)CC1 (stereo unspecified)	-11.2%	–	–
O=C(c1ccc(COc2ccccc2Br)o1)N1CCCCCC1	-2.73%	–	–
C=CCN1C(=O)/C(=C2/Sc3ccc(OC)cc3N2CC)SC1=S	-15.7%	–	6.51 µM [falling, full curve, poor fit]
